Experimental data as given in PMC6786517.
These are yes or no findings as the source states them, for the method shown. In cells and extracts the contact can be indirect. Binding calls can cover weak binding; strength is not graded here. Each block holds one substance with its values, some of them ahead of it.

The chains behind the UniProt entries cited, without tags or fusion partners. Where a name states a change or a piece, a line headed by the entry shows the natural chain unless it says otherwise.
UniProt Q8BWT5: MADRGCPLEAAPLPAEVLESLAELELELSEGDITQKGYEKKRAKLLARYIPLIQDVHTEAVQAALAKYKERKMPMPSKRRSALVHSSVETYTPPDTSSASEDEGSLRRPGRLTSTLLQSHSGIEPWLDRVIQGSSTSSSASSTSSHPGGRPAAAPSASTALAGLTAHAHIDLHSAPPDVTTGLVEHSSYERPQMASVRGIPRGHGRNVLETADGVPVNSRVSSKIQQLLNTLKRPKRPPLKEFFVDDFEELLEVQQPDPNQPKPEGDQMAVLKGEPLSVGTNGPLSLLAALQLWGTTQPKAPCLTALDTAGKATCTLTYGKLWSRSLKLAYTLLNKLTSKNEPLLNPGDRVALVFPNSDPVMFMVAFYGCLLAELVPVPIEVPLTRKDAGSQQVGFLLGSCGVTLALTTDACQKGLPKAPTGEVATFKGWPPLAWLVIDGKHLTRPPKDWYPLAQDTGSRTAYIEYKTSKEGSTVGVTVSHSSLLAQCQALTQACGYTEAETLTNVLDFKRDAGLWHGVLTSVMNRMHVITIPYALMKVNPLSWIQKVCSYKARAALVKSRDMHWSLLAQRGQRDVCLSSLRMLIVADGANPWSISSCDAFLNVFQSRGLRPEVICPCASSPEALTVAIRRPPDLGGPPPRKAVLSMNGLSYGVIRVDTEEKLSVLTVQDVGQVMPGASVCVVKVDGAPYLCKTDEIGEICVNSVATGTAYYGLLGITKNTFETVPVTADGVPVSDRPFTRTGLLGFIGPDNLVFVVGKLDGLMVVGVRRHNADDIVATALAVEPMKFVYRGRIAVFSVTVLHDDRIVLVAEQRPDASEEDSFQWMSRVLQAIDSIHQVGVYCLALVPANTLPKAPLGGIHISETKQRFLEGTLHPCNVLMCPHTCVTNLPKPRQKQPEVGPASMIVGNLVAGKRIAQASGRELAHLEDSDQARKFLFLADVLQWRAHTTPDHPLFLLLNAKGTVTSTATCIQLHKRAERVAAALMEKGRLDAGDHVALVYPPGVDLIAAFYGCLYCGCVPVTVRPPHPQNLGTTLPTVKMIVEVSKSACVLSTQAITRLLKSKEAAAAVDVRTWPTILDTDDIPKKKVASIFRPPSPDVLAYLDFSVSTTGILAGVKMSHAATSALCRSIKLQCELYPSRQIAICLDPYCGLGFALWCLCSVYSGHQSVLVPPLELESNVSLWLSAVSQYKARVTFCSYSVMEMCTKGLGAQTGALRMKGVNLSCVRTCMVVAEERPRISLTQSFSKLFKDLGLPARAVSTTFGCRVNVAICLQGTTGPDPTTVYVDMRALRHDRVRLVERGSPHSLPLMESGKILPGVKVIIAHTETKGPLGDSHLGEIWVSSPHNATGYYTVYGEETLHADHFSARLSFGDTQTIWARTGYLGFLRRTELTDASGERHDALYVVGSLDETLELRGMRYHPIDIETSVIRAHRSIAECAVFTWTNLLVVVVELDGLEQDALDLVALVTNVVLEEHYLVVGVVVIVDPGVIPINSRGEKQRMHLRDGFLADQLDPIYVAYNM
UniProt Q60598: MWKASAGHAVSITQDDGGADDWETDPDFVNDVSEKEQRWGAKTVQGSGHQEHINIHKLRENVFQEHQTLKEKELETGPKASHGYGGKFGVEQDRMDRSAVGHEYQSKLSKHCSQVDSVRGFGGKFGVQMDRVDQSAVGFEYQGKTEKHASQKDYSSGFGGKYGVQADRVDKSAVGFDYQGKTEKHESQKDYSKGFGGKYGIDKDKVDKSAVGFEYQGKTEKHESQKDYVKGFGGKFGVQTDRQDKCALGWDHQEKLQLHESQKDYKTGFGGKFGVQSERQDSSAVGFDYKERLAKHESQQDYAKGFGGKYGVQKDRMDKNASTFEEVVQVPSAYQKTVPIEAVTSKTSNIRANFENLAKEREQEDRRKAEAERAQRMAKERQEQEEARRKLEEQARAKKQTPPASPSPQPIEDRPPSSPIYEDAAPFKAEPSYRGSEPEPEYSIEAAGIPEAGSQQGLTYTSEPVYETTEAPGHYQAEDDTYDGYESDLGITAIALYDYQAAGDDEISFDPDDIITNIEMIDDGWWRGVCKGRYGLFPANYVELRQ
UniProt Q4ACU6: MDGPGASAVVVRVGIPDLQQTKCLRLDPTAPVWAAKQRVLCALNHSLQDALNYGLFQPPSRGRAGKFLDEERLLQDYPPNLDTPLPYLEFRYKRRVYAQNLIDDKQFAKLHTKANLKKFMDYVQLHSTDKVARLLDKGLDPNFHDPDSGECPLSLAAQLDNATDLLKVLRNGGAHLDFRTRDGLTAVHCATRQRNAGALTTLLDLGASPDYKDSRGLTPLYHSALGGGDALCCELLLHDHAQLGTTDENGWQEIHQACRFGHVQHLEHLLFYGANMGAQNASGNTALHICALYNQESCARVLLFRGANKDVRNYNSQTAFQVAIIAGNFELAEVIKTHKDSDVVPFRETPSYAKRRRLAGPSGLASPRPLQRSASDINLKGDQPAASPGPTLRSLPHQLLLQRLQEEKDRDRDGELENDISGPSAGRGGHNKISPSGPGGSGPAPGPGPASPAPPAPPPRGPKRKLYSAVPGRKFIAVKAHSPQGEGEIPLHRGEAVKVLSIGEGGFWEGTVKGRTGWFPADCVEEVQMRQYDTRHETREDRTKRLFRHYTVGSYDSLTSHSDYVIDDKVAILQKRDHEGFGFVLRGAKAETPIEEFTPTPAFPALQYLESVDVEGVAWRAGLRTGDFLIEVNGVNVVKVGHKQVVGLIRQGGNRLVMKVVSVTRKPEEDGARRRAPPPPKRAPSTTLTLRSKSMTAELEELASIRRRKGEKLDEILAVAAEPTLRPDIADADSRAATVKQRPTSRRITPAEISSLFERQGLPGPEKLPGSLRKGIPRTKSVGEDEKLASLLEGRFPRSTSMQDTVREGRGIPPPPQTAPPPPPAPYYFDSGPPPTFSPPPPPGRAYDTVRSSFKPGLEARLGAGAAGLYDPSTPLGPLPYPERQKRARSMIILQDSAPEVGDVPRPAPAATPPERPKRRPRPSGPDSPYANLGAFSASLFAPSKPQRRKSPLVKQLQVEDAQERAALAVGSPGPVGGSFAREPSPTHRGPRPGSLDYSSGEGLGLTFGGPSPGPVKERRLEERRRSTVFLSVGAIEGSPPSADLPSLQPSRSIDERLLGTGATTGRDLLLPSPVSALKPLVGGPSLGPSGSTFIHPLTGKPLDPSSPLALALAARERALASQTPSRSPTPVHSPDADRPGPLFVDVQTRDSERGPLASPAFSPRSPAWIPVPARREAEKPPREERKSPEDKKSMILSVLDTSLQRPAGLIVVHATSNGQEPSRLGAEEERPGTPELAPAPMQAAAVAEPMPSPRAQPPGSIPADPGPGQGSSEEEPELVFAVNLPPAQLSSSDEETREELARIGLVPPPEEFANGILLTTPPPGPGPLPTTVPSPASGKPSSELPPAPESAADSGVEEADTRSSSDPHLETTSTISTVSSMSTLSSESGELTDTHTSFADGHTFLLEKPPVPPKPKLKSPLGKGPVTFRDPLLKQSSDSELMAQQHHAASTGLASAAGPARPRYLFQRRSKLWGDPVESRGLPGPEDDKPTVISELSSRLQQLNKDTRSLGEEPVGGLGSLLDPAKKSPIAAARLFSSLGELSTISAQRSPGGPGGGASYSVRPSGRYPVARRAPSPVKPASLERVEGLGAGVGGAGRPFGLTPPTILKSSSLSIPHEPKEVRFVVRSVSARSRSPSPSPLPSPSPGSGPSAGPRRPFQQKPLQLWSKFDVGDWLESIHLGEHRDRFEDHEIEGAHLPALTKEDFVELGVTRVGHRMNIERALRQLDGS

Experiments:
[1] = target: FLAG-tagged N terminus-truncated DIP2A(1-320) (UniProt Q8BWT5); assay: co-IP; HEK293 cells co-transfected with HA-cortactin and FLAG-tagged full-length or truncated DIP2A; IP with anti-FLAG antibody, blot for HA-cortactin
[2] = target: GST-tagged DIP2A(1-320) (UniProt Q8BWT5); assay: pull-down; GST-tagged DIP2A1-320, wild type and PXXP mutants, tested for cortactin (Fig 4C and 4D); fusion proteins incubated with cell or brain lysates by the general methods; only the target purified
[3] = target: GST-tagged DIP2A(1-320) P274A/P277A (UniProt Q8BWT5); assay: as above
[4] = target: GST-tagged DIP2A(1-320) P298A/P301A (UniProt Q8BWT5); assay: as above
[5] = target: GST-tagged DIP2A(1-320) with both PXXP motifs mutated (double) (UniProt Q8BWT5); assay: as above
[6] = target: His-tagged DIP2A(1-320) (UniProt Q8BWT5); assay: pull-down; His-DIP2A1-320 from E. coli on Ni-NTA, incubated with murine cerebral cortex lysate overnight at 4 °C; blot; only the target purified

binding [1]: binds
Substance: HA-tagged cortactin (from UniProt Q60598 1-546)

binding [2]: binds
binding [3]: binds
binding [4]: binds
binding [5]: binds weakly
Substance: cortactin of the binding assays of Fig 4B and 4D (construct not stated) (from UniProt Q60598 1-546)

binding [6]: binds
Substance: endogenous SHANK3 (SH3 and multiple ankyrin repeat domains 3) from murine brain lysate (from UniProt Q4ACU6 1-1730)

binding [6]: binds
Substance: endogenous cortactin from murine brain lysate (from UniProt Q60598 1-546)
